Measured values taken from PubChem BioAssay AID2685 (National Center for Advancing Translational Sciences (NCATS), 2010).
This is one part of the list. These are further read-outs of the screen, such as a control signal, another cell line or another target. No call is given for them. The list favours compounds with an active or inconclusive main result. Words in brackets tell the shape of the fitted curve; partial curves, single points and poor fits give uncertain potencies.

Experiment: qHTS Assay for Lipid Storage Modulators in Drosophila S3 Cells;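 for cell number change: cells counted by Cell Tracker Red CMTPX staining in the red channel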
Settings: BODIPY lipid droplet fluorescence, 18-24 h; for cell number change: measured here: cell count max response, cells fed with added oleic acid
Summary of the method: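 Drosophila S3 cells got compounds at several concentrations plus oleic acid (400 uM solution). Laser-scanning cytometry with 488 nm excitation read lipid droplets at 500-530 nm and cells at 575-640 nm. Percent activity was relative to 20 uM Triacsin C.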

[1] = measured here: cell number channel AC50, cells fed with added oleic acid
[2] = measured here: lipid fluorescence (Fed channel) AC50, cells fed with added oleic acid

SMILES	cell number change [%]	AC50 [1]	AC50 [2]
O=C(N/N=C/c1cn(-c2cccs2)nc1-c1ccccc1)c1ccccc1O	-43.8	20.6 µM [falling, single point]	20.6 µM [falling, single point]
Nc1c(C(=O)NCc2ccccc2)c2nc3ccccc3nc2n1-c1ccc2c(c1)OCO2	22.4	0.116 µM [rising, full curve]	0.082 µM [rising, full curve]
CCCCCCCNC(=O)C1(CC2CC(c3cccc(Br)c3)=NO2)CCN(C(=O)C2(C)CC2)CC1 (stereo not drawn)	18.4		29.1 µM [rising, single point]
Cc1ccc(SCc2nc(-c3cccnc3)no2)cc1	0.992		3.26 µM [rising, full curve]
CCn1c(CCc2ccccc2)n[nH]c1=S	11.7		0.13 µM [falling, full curve, poor fit]
CCC(C(=O)N/N=C/c1cccnc1)c1ccccc1 (stereo not drawn)	-3.24		
CCOC(=O)[C@H]1[C@H]2COc3ccccc3[C@@H]2N2C(=O)c3cc(Cl)ccc3NC(=O)[C@@]12C	-10.2	0.0092 µM [falling, full curve, poor fit]	29.1 µM [falling, single point]
CC(=O)Nc1c(C(N)=O)oc2ccc(Cl)cc12	20		
Cc1nc2c(C)cccc2c2c1CCN2c1ccccc1F	17.8		3.66 µM [rising, full curve, poor fit]
N=C(N)SCP(=O)(c1ccccc1)c1ccccc1	11	4.11 µM [rising, single point]	4.11 µM [rising, single point]
NC(=O)c1sc2nc(N3CCCCC3)c3c(c2c1N)CCCC3	-30.6	29.1 µM [falling, single point]	
O=C(N1CCOCC1)N1CCN(S(=O)(=O)c2ccc(F)cc2)CC1	18.5		
O=C(N/N=C\c1ccc2c(c1)OCO2)c1cncc(Br)c1	-11.8		0.326 µM [rising, single point]
CCc1ccc(NC(=O)C2CCN(S(=O)(=O)c3ccc4c(c3)N(C(C)=O)CCO4)CC2)cc1	-5.31		11.6 µM [falling, single point]
COc1ccc([N+](=O)[O-])cc1N(CC(=O)N1CCOCC1)S(C)(=O)=O	-37.7		
Cc1ccc(NC2Sc3ccccc3NC2=O)cc1Cl (stereo not drawn)	-65.9	14.6 µM [falling, partial curve]	18.4 µM [falling, partial curve]
CC(CN1CCN(Cc2ccccc2)CC1)c1ccccc1 (stereo not drawn)	4.74		29.1 µM [rising, single point]
CC(C)=CCOc1c2ccoc2cc2oc(=O)ccc12	23.7		1.64 µM [rising, partial curve]
COc1ccc([C@@H]2[C@@H]3C(=O)N(C(C)(C)C)C(=O)[C@@H]3[C@]3(Cc4ccc(Cl)cc4)C(=O)N(c4cccc(Br)c4)C(=O)N23)cc1	91.9		
CCOC(=O)C1(Cc2ccccc2)CCN(Cc2cnn(CC)c2)CC1	0.358		4.61 µM [rising, single point]
COc1cccc(/C=C/C(=O)OCC(=O)c2ccc(S(=O)(=O)N3CCCCC3)cc2)c1OC	-20.3		

SMILES	cell number change [%]	AC50 [1]	AC50 [2]
CCn1c(N2CCN(C(=S)NC)CC2)nc2ccccc21	-7.73		0.58 µM [falling, single point]
O=C(CSc1nnc(NC(=O)c2cccc(F)c2)s1)NCc1ccco1	4.27		0.13 µM [rising, full curve, poor fit]
Cc1cc(NC(=O)Nc2ccc(Cl)cc2)n(C)n1	-37.6	3.26 µM [falling, partial curve, poor fit]	29.1 µM [falling, single point]
CCCCN(C)C(=O)c1cn(C)c2ccc(S(=O)(=O)N3CCC(C)CC3)cc2c1=O	14.9		
O=C1CCCC2=C1C(c1ccccc1)n1c(s/c(=C/c3cccc(F)c3)c1=O)=N2 (stereo not drawn)	22.9		0.651 µM [falling, full curve]
OCC[C@H]1C[C@H](O)[C@@H](O)[C@]2(OCCc3ccccc32)O1	-43.5	29.1 µM [falling, single point]	
CCc1ccccc1NS(=O)(=O)Cc1ccccc1	-11.3		
Cn1nc(C(=O)OCc2ccc(Br)cc2F)c2ccccc2c1=O	-0.583		
CCC(C)(C)NC(=O)c1sccc1Oc1ccc(F)cc1[N+](=O)[O-]	58.3		
C=CCC1c2cccc(C(=O)O)c2C(=O)N1c1ccc(Cl)cc1 (stereo not drawn)	61.8	13 µM [rising, partial curve]	
NNC(=O)CSc1nc(-c2ccccc2)nc2c1CCCC2	-84.2		
CCc1cc2c3c(c(=O)oc2cc1OCC(=O)OC)CCCC3	-4.56		
CCCNC(=O)C(Cc1ccc(I)cc1)NC(=O)c1ccc(C#N)cc1 (stereo not drawn)	5.43	0.0058 µM [falling, full curve, poor fit]	0.00461 µM [falling, full curve, poor fit]
NC1=NC[C@H](Cc2ccc(O)cc2)N1CCc1cccc2ccccc12	-5.56		
Cc1cc(C)cc(NC(=O)CSc2nnnn2-c2cccnc2)c1	11.3		6.51 µM [rising, single point]
CCOC(=O)c1c(NC(=O)C2CC2)sc(C)c1CC	-33.8	29.1 µM [falling, single point]	16.4 µM [falling, single point]
COC(=O)C(C)(C)ONC(=O)Nc1ccc([N+](=O)[O-])cc1	60.5	20.6 µM [rising, single point]	
CCOc1ccc(NS(=O)(=O)c2ccc(NC(=O)C3CCCO3)cc2)cc1 (stereo not drawn)	27.3		3.66 µM [rising, partial curve, poor fit]
COc1ccccc1NC(=S)NC(=O)c1ccc(-c2ccc(Cl)cc2)o1	14.3		16.4 µM [rising, single point]
COc1ccc(OC)c(NC(=O)CSc2ccc(-c3cccnc3)nn2)c1	6.16	3.66 µM [rising, single point]	6.51 µM [rising, single point]

Rewritten field by field: part of the list above
CCOC(=O)c1c(NC(=O)C2CC2)sc(C)c1CC
  cell number change [%]: -33.8; AC50 [1]: 29.1 µM [falling, single point]; AC50 [2]: 16.4 µM [falling, single point]
COC(=O)C(C)(C)ONC(=O)Nc1ccc([N+](=O)[O-])cc1
  cell number change [%]: 60.5; AC50 [1]: 20.6 µM [rising, single point]
